The values that follow come from paper PMC12607995.

Sequences of proteins named here, by UniProt entry; tags and fusion partners are left off. Residues count along the entry.
UniProt Q62151, residues 23-402: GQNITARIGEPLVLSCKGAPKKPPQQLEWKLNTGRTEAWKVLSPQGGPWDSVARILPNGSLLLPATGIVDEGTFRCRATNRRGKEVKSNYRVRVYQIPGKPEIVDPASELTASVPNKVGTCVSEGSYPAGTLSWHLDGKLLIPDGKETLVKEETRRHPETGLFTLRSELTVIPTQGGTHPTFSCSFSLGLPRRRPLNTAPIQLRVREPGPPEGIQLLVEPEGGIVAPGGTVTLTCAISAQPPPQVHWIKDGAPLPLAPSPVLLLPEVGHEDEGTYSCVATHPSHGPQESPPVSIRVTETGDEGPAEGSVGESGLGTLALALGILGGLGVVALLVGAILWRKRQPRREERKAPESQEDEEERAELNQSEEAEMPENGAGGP
UniProt Q15109, residues 23-404: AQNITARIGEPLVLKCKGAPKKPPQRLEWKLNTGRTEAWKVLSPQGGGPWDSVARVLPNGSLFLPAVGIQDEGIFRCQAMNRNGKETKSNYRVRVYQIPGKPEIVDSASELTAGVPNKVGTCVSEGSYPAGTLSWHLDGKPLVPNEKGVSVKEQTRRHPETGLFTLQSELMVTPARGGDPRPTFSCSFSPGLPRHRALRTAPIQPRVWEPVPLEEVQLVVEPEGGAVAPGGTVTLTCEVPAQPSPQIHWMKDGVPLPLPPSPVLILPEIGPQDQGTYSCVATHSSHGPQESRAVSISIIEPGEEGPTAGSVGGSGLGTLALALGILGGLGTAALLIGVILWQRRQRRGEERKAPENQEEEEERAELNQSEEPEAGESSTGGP
UniProt P63158: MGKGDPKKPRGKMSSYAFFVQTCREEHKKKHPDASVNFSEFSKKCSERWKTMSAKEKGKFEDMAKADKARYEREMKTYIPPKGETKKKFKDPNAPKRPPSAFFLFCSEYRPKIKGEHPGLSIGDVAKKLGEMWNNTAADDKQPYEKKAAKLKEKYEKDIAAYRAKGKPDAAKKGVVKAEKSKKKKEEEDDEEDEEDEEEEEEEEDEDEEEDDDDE
UniProt P09429: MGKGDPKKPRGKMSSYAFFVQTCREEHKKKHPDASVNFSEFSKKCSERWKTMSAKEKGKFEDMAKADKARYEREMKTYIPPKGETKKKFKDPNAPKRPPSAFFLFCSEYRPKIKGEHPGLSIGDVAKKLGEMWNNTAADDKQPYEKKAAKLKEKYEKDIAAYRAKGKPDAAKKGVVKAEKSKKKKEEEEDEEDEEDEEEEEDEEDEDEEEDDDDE

Results are given in words; binding and its absence hold for the method and conditions named. In cells and extracts the contact can be indirect. Some results given as binding are weak or reduced against the parent protein; the word gives no strength.

For test [1], the target named is Receptor for Advanced Glycation Endproducts (RAGE), endogenous in RAW 264.7 mouse macrophages (mouse (endogenous in RAW 264.7)) (UniProt Q62151). The experiment in a line: proximity ligation; RAW 264.7 macrophages on coverslips, serum-free medium 24 h (vehicle, 100 ng/mL LPS, 50 nM dPGS, or LPS + dPGS), fixed with 4% PFA, permeabilised with 0.1% Triton X-100; Duolink In Situ Orange Goat/Rabbit kit with goat anti-human RAGE and rabbit anti-human HMGB1.

Test [2] concerns the target Receptor for Advanced Glycation Endproducts (RAGE), endogenous in human HMC3 microglia (human (endogenous in HMC3)) (UniProt Q15109). The experiment in a line: proximity ligation; HMC3 human microglia on coverslips, treated as the RAW 264.7 cells (vehicle, LPS, dPGS, LPS + dPGS); Duolink In Situ Red Mouse/Rabbit kit with rabbit anti-human RAGE and mouse anti-human HMGB1 [1F3].

In the case of “High Mobility Group Box 1 (HMGB1), endogenous in RAW 264.7 mouse macrophages (from UniProt P63158 1-215)”, the binding entry in test [1] is listed as “binds”.

On to “High Mobility Group Box 1 (HMGB1), endogenous in human HMC3 microglia (from UniProt P09429 1-215)”, for which the binding result in test [2] is listed as “binds”.
